Measurements as given in article PMC6385319.
These are yes or no findings as the source states them, for the method shown. Binding seen in cells or lysates may run through a third protein. Some binding calls cover weakened binding; strength is not graded here.

Chains of the proteins cited; added tags and fusions are not shown.
UniProt P31749: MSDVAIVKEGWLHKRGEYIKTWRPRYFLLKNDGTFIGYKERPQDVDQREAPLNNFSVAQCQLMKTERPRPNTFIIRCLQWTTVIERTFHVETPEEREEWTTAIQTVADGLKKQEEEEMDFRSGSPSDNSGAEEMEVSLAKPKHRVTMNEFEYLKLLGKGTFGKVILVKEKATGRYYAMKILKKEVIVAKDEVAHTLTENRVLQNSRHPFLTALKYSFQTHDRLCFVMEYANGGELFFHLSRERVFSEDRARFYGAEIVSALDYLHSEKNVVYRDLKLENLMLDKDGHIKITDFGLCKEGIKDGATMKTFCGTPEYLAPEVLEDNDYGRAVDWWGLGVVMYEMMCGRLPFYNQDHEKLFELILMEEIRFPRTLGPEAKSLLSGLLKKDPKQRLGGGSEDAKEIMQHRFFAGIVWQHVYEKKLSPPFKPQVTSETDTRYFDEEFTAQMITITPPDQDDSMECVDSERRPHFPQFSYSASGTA

Tests used:
mCherry-APPL1 [1] = molecular target: T1, mCherry-APPL1 (UniProt Q9UKG1); experiment: FRET or BRET; FRET/FLIM in live primary hippocampal neurons; GFP-Akt1 donor, mCherry-APPL1 acceptor; after dynasore treatment for 5 min
T1 sequence: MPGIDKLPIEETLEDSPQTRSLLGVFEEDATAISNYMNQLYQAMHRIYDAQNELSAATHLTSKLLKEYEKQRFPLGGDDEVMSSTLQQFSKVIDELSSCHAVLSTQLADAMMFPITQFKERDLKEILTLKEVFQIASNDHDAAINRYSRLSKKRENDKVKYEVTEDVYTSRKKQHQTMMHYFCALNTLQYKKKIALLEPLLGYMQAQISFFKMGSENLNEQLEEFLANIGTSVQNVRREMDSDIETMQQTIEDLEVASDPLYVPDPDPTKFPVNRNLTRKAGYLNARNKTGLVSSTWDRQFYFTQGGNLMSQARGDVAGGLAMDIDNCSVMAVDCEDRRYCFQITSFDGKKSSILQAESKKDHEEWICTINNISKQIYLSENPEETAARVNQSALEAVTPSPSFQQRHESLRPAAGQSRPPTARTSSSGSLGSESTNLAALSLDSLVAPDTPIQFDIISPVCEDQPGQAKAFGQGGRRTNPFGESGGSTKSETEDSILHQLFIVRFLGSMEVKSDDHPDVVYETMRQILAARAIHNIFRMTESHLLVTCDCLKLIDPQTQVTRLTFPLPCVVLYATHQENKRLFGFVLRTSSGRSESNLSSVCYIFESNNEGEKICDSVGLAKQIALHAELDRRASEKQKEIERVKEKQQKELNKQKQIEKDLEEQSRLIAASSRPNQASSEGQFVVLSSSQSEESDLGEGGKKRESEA

mCherry-APPL1 [2] = molecular target: T1, mCherry-APPL1; experiment: FRET or BRET; FRET/FLIM in live primary hippocampal neurons at DIV 7, 37 °C; GFP-Akt1 donor, mCherry fusion acceptor; donor lifetime measured in cell body and growth cone; untreated

GFP-Akt1 (from UniProt P31749 1-480)
binding (mCherry-APPL1 [1]): no binding (condition: after dynasore treatment for 5 min)
binding (mCherry-APPL1 [2]): binds
